Results taken from patent publication US20090220527A1 (MEDLMMUNE, published 2009).
Numbering of substitutions follows the chain as printed. No constants are given. Whether binding was seen depends on the method and setting. Some binding calls cover weakened binding; strength is not graded here. Blank lines part the entries; values can stand above or below the binder they belong to.

Chains of the proteins cited; added tags and fusions are not shown. Residues count along the entry.
UniProt P29317, residues 24-534: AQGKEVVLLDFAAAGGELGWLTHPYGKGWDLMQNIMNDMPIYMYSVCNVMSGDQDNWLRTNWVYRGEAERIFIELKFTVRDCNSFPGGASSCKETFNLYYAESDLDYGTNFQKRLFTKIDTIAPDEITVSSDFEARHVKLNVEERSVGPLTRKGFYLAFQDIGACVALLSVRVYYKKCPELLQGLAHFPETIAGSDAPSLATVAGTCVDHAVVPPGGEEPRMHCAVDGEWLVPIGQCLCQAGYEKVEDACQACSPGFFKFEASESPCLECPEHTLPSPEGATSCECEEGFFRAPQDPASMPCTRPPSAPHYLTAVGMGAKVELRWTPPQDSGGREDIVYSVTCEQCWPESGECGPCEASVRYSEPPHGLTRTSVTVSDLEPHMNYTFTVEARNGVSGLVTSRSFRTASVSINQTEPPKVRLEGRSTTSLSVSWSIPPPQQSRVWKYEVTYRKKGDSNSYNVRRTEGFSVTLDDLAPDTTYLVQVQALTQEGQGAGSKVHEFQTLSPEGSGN

Biological target: human EphA2 (form used in the affinity measurements not stated) (human) (UniProt P29317)
Assay: SPR (BIAcore 3000), purified scFv

- binding: binds
B1: 2A4 scFv (affinity optimized combinatorial variant of humanized 4H5) (scFv)
scFv: QVQLLESGGGLVQPGGSLRLSCAASGFTFSSYTMSWVRQAPGQALEWMGTISSRGTYTYYPDSVKGRFTISRDNAKNSLYLQMNSLRAEDTAVYYCAREAIFTHWGRGTLVTVSSGGGGSGGGGSGGGGSDIQLTQSPSSLSASVGDRVTITCKASQDINNYHSWYQQKPGQAPRLLIYRANRLVDGVPDRFSGSGYGTDFTLTINNIESEDAAYYFCLKYNVFPYTFGQGTKVEIK

- binding: binds
B2: 2E7 scFv (affinity optimized combinatorial variant of humanized 4H5) (scFv)
scFv: B1 scFv with H163G, V223R
